No constants are given. Whether binding was seen depends on the method and setting. Binding seen in cells or lysates may run through a third protein. Here binding means that the protein was enriched with, or labelled near, the bait; the list need not be complete.
These binders were tested against CCDC22 (human) (UniProt O60826) (assay: affinity purification with mass spectrometry; MAC-tagged bait stably expressed in Flp-In T-REx 293 (tetracycline 24 h); cleared lysate (50 mM HEPES pH 8.0, 150 mM NaCl, 0.5% IGEPAL) on Strep-Tactin beads, eluted with biotin; high-confidence interactions by SAINTexpress (BFDR < 0.05) and CRAPome against MAC-tagged GFP controls).

Protein sequences, listed by entry. Tags and fused reporters are not part of them.
UniProt O60826: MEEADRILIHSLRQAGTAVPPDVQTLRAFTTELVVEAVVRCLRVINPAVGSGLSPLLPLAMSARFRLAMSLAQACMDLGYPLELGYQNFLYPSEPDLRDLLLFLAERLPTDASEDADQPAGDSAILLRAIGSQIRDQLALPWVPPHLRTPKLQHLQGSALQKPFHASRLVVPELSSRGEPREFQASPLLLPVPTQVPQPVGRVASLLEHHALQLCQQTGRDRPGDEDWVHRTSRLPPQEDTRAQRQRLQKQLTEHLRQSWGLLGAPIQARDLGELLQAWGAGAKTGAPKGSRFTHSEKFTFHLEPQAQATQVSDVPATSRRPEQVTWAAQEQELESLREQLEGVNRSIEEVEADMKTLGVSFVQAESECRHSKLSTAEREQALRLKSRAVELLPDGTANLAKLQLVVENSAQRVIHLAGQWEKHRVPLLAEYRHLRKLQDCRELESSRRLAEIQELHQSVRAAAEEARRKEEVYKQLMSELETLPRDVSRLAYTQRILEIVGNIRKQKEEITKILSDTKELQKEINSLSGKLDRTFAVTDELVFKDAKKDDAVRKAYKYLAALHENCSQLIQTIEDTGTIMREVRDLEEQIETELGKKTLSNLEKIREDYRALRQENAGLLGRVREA

| Binder | binding |
| --- | --- |
| CAMSAP2 (Calmodulin-regulated spectrin-associated protein 2) (protein, UniProt Q08AD1 1-1489) MGDAADPREMRKTFIVPAIKPFDHYDFSRAKIACNLAWLVAKAFGTENVPEELQEPFYTDQYDQEHIKPPVVNLLLSAELYCRAGSLILKSDAAKPLLGHDAVIQALAQKGLYVTDQEKLVTERDLHKKPIQMSAHLAMIDTLMMAYTVEMVSIEKVIACAQQYSAFFQATDLPYDIEDAVMYWINKVNEHLKDIMEQEQKLKEHHTVEAPGGQKSPSKWFWKLVPARYRKEQTLLKQLPCIPLVENLLKDGTDGCALAALIHFYCPDVVRLEDICLKETMSLADSLYNLQLIQEFCQEYLNQCCHFTLEDMLYAASSIKSNYLVFMAELFWWFEVVKPSFVQPRVVRPQGAEPVKDMPSIPVLNAAKRNVLDSSSDFPSSGEGATFTQSHHHLPSRYSRPQAHSSASGGIRRSSSMSYVDGFIGTWPKEKRSSVHGVSFDISFDKEDSVQRSTPNRGITRSISNEGLTLNNSHVSKHIRKNLSFKPINGEEEAESIEEELNIDSHSDLKSCVPLNTNELNSNENIHYKLPNGALQNRILLDEFGNQIETPSIEEALQIIHDTEKSPHTPQPDQIANGFFLHSQEMSILNSNIKLNQSSPDNVTDTKGALSPITDNTEVDTGIHVPSEDIPETMDEDSSLRDYTVSLDSDMDDASKFLQDYDIRTGNTREALSPCPSTVSTKSQPGSSASSSSGVKMTSFAEQKFRKLNHTDGKSSGSSSQKTTPEGSELNIPHVVAWAQIPEETGLPQGRDTTQLLASEMVHLRMKLEEKRRAIEAQKKKMEAAFTKQRQKMGRTAFLTVVKKKGDGISPLREEAAGAEDEKVYTDRAKEKESQKTDGQRSKSLADIKESMENPQAKWLKSPTTPIDPEKQWNLASPSEETLNEGEILEYTKSIEKLNSSLHFLQQEMQRLSLQQEMLMQMREQQSWVISPPQPSPQKQIRDFKPSKQAGLSSAIAPFSSDSPRPTHPSPQSSNRKSASFSVKSQRTPRPNELKITPLNRTLTPPRSVDSLPRLRRFSPSQVPIQTRSFVCFGDDGEPQLKESKPKEEVKKEELESKGTLEQRGHNPEEKEIKPFESTVSEVLSLPVTETVCLTPNEDQLNQPTEPPPKPVFPPTAPKNVNLIEVSLSDLKPPEKADVPVEKYDGESDKEQFDDDQKVCCGFFFKDDQKAENDMAMKRAALLEKRLRREKETQLRKQQLEAEMEHKKEETRRKTEEERQKKEDERARREFIRQEYMRRKQLKLMEDMDTVIKPRPQVVKQKKQRPKSIHRDHIESPKTPIKGPPVSSLSLASLNTGDNESVHSGKRTPRSESVEGFLSPSRCGSRNGEKDWENASTTSSVASGTEYTGPKLYKEPSAKSNKHIIQNALAHCCLAGKVNEGQKKKILEEMEKSDANNFLILFRDSGCQFRSLYTYCPETEEINKLTGIGPKSITKKMIEGLYKYNSDRKQFSHIPAKTLSASVDAITIHSHLWQTKRPVTPKKLLPTKA | binds |
| NDE1 (protein, UniProt Q9NXR1 1-335) MEDSGKTFSSEEEEANYWKDLAMTYKQRAENTQEELREFQEGSREYEAELETQLQQIETRNRDLLSENNRLRMELETIKEKFEVQHSEGYRQISALEDDLAQTKAIKDQLQKYIRELEQANDDLERAKRATIMSLEDFEQRLNQAIERNAFLESELDEKENLLESVQRLKDEARDLRQELAVQQKQEKPRTPMPSSVEAERTDTAVQATGSVPSTPIAHRGPSSSLNTPGSFRRGLDDSTGGTPLTPAARISALNIVGDLLRKVGALESKLASCRNLVYDQSPNRTGGPASGRSSKNRDGGERRPSSTSVPLGDKGLDTSCRWLSKSTTRSSSSC | binds |
| HAUS4 (protein, UniProt Q9H6D7 1-363) MASGDFCSPGEGMEILQQVCSKQLPPCNLSKEDLLQNPYFSKLLLNLSQHVDESGLSLTLAKEQAQAWKEVRLHKTTWLRSEILHRVIQELLVDYYVKIQDTNVTSEDKKFHETLEQRLLVTELMRLLGPSQEREIPPLLGLEKADLLELMPLSEDFVWMRARLQQEVEEQLKKKCFTLLCYYDPNSDADSETVKAAKVWKLAEVLVGEQQQCQDAKSQQKEQMLLLEKKSAAYSQVLLRCLTLLQRLLQEHRLKTQSELDRINAQYLEVKCGAMILKLRMEELKILSDTYTVEKVEVHRLIRDRLEGAIHLQEQDMENSRQVLNSYEVLGEEFDRLVKEYTVLKQATENKRWALQEFSKVYR | binds |
| DZIP1 (protein, UniProt Q86YF9 1-867) MQAEAADWFSSMPFQKHVYYPLASGPEGPDVAVAAAAAGAASMACAPPSAASGPLPFFQFRPRLESVDWRRLSAIDVDKVAGAVDVLTLQENIMNITFCKLEDEKCPHCQSGVDPVLLKLIRLAQFTIEYLLHSQEFLTSQLHTLEERLRLSHCDGEQSKKLLTKQAGEIKTLKEECKRRKKMISTQQLMIEAKANYYQCHFCDKAFMNQAFLQSHIQRRHTEENSHFEYQKNAQIEKLRSEIVVLKEELQLTRSELEAAHHASAVRFSKEYEMQKTKEEDFLKLFDRWKEEEKEKLVDEMEKVKEMFMKEFKELTSKNSALEYQLSEIQKSNMQIKSNIGTLKDAHEFKEDRSPYPQDFHNVMQLLDSQESKWTARVQAIHQEHKKEKGRLLSHIEKLRTSMIDDLNASNVFYKKRIEELGQRLQEQNELIITQRQQIKDFTCNPLNSISEPKGNPLAWQAFESQPAAPAVPMNAPALHTLETKSSLPMVHEQAFSSHILEPIEELSEEEKGRENEQKLNNNKMHLRKALKSNSSLTKGLRTMVEQNLMEKLETLGINADIRGISSDQLHRVLKSVESERHKQEREIPNFHQIREFLEHQVSCKIEEKALLSSDQCSVSQMDTLSTGEVPKMIQLPSKNRQLIRQKAVSTDRTSVPKIKKNVMEDPFPRKSSTITTPPFSSEEEQEDDDLIRAYASPGPLPVPPPQNKGSFGKNTVKSDADGTEGSEIEDTDDSPKPAGVAVKTPTEKVEKMFPHRKNVNKPVGGTNVPEMFIKKEELQELKCADVEDEDWDISSLEEEISLGKKSGKEQKEPPPAKNEPHFAHVLNAWGAFNPKGPKGEGLQENESSTLKSSLVTVTDWSDTSDV | binds |

Second part, the binder after the results:

| binding | Binder |
| --- | --- |
| binds | VIPAS39 (protein, UniProt Q9H9C1 1-493) MNRTKGDEEEYWNSSKFKAFTFDDEDDELSQLKESKRAVNSLRDFVDDDDDDDLERVSWSGEPVGSISWSIRETAGNSGSTHEGREQLKSRNSFSSYAQLPKPTSTYSLSSFFRGRTRPGSFQSLSDALSDTPAKSYAPELGRPKGEYRDYSNDWSPSDTVRRLRKGKVCSLERFRSLQDKLQLLEEAVSMHDGNVITAVLIFLKRTLSKEILFRELEVRQVALRHLIHFLKEIGDQKLLLDLFRFLDRTEELALSHYREHLNIQDPDKRKEFLKTCVGLPFSAEDSAHIQDHYTLLERQIIIEANDRHLESAGQTEIFRKHPRKASILNMPLVTTLFYSCFYHYTEAEGTFSSPVNLKKTFKIPDKQYVLTALAARAKLRAWNDVDALFTTKNWLGYTKKRAPIGFHRVVEILHKNNAPVQILQEYVNLVEDVDTKLNLATKFKCHDVVIDTYRDLKDRQQLLAYRSKVDKGSAEEEKIDALLSSSQIRWKN |
| binds | VPS33B (protein, UniProt Q9H267 1-617) MAFPHRPDAPELPDFSMLKRLARDQLIYLLEQLPGKKDLFIEADLMSPLDRIANVSILKQHEVDKLYKVENKPALSSNEQLCFLVRPRIKNMRYIASLVNADKLAGRTRKYKVIFSPQKFYACEMVLEEEGIYGDVSCDEWAFSLLPLDVDLLSMELPEFFRDYFLEGDQRWINTVAQALHLLSTLYGPFPNCYGIGRCAKMAYELWRNLEEEEDGETKGRRPEIGHIFLLDRDVDFVTALCSQVVYEGLVDDTFRIKCGSVDFGPEVTSSDKSLKVLLNAEDKVFNEIRNEHFSNVFGFLSQKARNLQAQYDRRRGMDIKQMKNFVSQELKGLKQEHRLLSLHIGACESIMKKKTKQDFQELIKTEHALLEGFNIRESTSYIEEHIDRQVSPIESLRLMCLLSITENGLIPKDYRSLKTQYLQSYGPEHLLTFSNLRRAGLLTEQAPGDTLTAVESKVSKLVTDKAAGKITDAFSSLAKRSNFRAISKKLNLIPRVDGEYDLKVPRDMAYVFGGAYVPLSCRIIEQVLERRSWQGLDEVVRLLNCSDFAFTDMTKEDKASSESLRLILVVFLGGCTFSEISALRFLGREKGYRFIFLTTAVTNSARLMEAMSEVKA |
| binds | OFD1 (protein, UniProt O75665 1-1012) MMAQSNMFTVADVLSQDELRKKLYQTFKDRGILDTLKTQLRNQLIHELMHPVLSGELQPRSISVEGSSLLIGASNSLVADHLQRCGYEYSLSVFFPESGLAKEKVFTMQDLLQLIKINPTSSLYKSLVSGSDKENQKGFLMHFLKELAEYHQAKESCNMETQTSSTFNRDSLAEKLQLIDDQFADAYPQRIKFESLEIKLNEYKREIEEQLRAEMCQKLKFFKDTEIAKIKMEAKKKYEKELTMFQNDFEKACQAKSEALVLREKSTLERIHKHQEIETKEIYAQRQLLLKDMDLLRGREAELKQRVEAFELNQKLQEEKHKSITEALRRQEQNIKSFEETYDRKLKNELLKYQLELKDDYIIRTNRLIEDERKNKEKAVHLQEELIAINSKKEELNQSVNRVKELELELESVKAQSLAITKQNHMLNEKVKEMSDYSLLKEEKLELLAQNKLLKQQLEESRNENLRLLNRLAQPAPELAVFQKELRKAEKAIVVEHEEFESCRQALHKQLQDEIEHSAQLKAQILGYKASVKSLTTQVADLKLQLKQTQTALENEVYCNPKQSVIDRSVNGLINGNVVPCNGEISGDFLNNPFKQENVLARMVASRITNYPTAWVEGSSPDSDLEFVANTKARVKELQQEAERLEKAFRSYHRRVIKNSAKSPLAAKSPPSLHLLEAFKNITSSSPERHIFGEDRVVSEQPQVGTLEERNDVVEALTGSAASRLRGGTSSRRLSSTPLPKAKRSLESEMYLEGLGRSHIASPSPCPDRMPLPSPTESRHSLSIPPVSSPPEQKVGLYRRQTELQDKSEFSDVDKLAFKDNEEFESSFESAGNMPRQLEMGGLSPAGDMSHVDAAAAAVPLSYQHPSVDQKQIEEQKEEEKIREQQVKERRQREERRQSNLQEVLERERRELEKLYQERKMIEESLKIKIKKELEMENELEMSNQEIKDKSAHSENPLEKYMKIIQQEQDQESADKSSKKMVQEGSLVDTLQSSDKVESLTGFSHEELDDSW |
| binds | VPS33A (protein, UniProt Q96AX1 1-596) MAAHLSYGRVNLNVLREAVRRELREFLDKCAGSKAIVWDEYLTGPFGLIAQYSLLKEHEVEKMFTLKGNRLPAADVKNIIFFVRPRLELMDIIAENVLSEDRRGPTRDFHILFVPRRSLLCEQRLKDLGVLGSFIHREEYSLDLIPFDGDLLSMESEGAFKECYLEGDQTSLYHAAKGLMTLQALYGTIPQIFGKGECARQVANMMIRMKREFTGSQNSIFPVFDNLLLLDRNVDLLTPLATQLTYEGLIDEIYGIQNSYVKLPPEKFAPKKQGDGGKDLPTEAKKLQLNSAEELYAEIRDKNFNAVGSVLSKKAKIISAAFEERHNAKTVGEIKQFVSQLPHMQAARGSLANHTSIAELIKDVTTSEDFFDKLTVEQEFMSGIDTDKVNNYIEDCIAQKHSLIKVLRLVCLQSVCNSGLKQKVLDYYKREILQTYGYEHILTLHNLEKAGLLKPQTGGRNNYPTIRKTLRLWMDDVNEQNPTDISYVYSGYAPLSVRLAQLLSRPGWRSIEEVLRILPGPHFEERQPLPTGLQKKRQPGENRVTLIFFLGGVTFAEIAALRFLSQLEDGGTEYVIATTKLMNGTSWIEALMEKPF |

Reference: publication PMC11189303
